From publication PMC5762923
Results are given in words; binding and its absence hold for the method and conditions named. In cells and extracts the contact can be indirect. Some binding calls cover weakened binding; strength is not graded here. Tags and fused reporters may be left off the sequences shown.

The chains behind the UniProt entries cited, without tags or fusion partners.
UniProt Q13263: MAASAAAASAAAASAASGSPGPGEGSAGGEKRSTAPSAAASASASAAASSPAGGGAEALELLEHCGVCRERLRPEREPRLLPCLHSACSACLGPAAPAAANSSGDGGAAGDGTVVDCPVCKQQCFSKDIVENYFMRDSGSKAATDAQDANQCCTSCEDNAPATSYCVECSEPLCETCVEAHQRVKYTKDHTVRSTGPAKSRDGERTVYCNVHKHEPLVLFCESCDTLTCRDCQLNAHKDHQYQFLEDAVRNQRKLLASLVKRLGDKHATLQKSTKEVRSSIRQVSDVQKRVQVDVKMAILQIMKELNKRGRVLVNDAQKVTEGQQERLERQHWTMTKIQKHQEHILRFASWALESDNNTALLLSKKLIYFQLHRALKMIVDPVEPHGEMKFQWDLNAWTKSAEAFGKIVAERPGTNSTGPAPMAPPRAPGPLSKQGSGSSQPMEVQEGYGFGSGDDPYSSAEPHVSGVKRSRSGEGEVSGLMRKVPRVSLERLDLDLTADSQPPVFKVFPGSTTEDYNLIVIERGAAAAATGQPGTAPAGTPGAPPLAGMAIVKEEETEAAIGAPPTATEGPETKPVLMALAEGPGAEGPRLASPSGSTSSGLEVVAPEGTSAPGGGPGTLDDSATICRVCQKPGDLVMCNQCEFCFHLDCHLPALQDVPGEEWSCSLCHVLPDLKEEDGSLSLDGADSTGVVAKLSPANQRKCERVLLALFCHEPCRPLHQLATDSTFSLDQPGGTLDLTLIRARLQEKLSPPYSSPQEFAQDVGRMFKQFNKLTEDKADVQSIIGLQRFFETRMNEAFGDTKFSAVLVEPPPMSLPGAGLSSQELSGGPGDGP

Target: Myc-tagged TRIM28 (tripartite motif-containing 28) (UniProt Q13263)
Assay: co-IP; HEK293 cells transfected with Myc-TRIM28 and 3XFlag-SENP6 or 3XFlag-SENP6(C1030A), 48 h; lysed in RIPA buffer with protease inhibitor and NEM; immunoprecipitation with Myc or Flag antibodies; western blot

Row | binding | Binder
1 | binds | 3XFlag-SENP6 (SUMO1/sentrin-specific peptidase 6), wild type (enzyme, UniProt Q9GZR1 1-1112) MAAGKSGGSAGEITFLEALARSESKRDGGFKNNWSFDHEEESEGDTDKDGTNLLSVDEDEDSETSKGKKLNRRSEIVANSSGEFILKTYVRRNKSESFKTLKGNPIGLNMLSNNKKLSENTQNTSLCSGTVVHGRRFHHAHAQIPVVKTAAQSSLDRKERKEYPPHVQKVEINPVRLSRLQGVERIMKKTEESESQVEPEIKRKVQQKRHCSTYQPTPPLSPASKKCLTHLEDLQRNCRQAITLNESTGPLLRTSIHQNSGGQKSQNTGLTTKKFYGNNVEKVPIDIIVNCDDSKHTYLQTNGKVILPGAKIPKITNLKERKTSLSDLNDPIILSSDDDDDNDRTNRRESISPQPADSACSSPAPSTGKVEAALNENTCRAERELRSIPEDSELNTVTLPRKARMKDQFGNSIINTPLKRRKVFSQEPPDALALSCQSSFDSVILNCRSIRVGTLFRLLIEPVIFCLDFIKIQLDEPDHDPVEIILNTSDLTKCEWCNVRKLPVVFLQAIPAVYQKLSIQLQMNKEDKVWNDCKGVNKLTNLEEQYIILIFQNGLDPPANMVFESIINEIGIKNNISNFFAKIPFEEANGRLVACTRTYEESIKGSCGQKENKIKTVSFESKIQLRSKQEFQFFDEEEETGENHTIFIGPVEKLIVYPPPPAKGGISVTNEDLHCLNEGEFLNDVIIDFYLKYLVLEKLKKEDADRIHIFSSFFYKRLNQRERRNHETTNLSIQQKRHGRVKTWTRHVDIFEKDFIFVPLNEAAHWFLAVVCFPGLEKPKYEPNPHYHENAVIQKCSTVEDSCISSSASEMESCSQNSSAKPVIKKMLNKKHCIAVIDSNPGQEESDPRYKRNICSVKYSVKKINHTASENEEFNKGESTSQKVADRTKSENGLQNESLSSTHHTDGLSKIRLNYSDESPEAGKMLEDELVDFSEDQDNQDDSSDDGFLADDNCSSEIGQWHLKPTICKQPCILLMDSLRGPSRSNVVKILREYLEVEWEVKKGSKRSFSKDVMKGSNPKVPQQNNFSDCGVYVLQYVESFFENPILSFELPMNLANWFPPPRMRTKREEIRNIILKLQEDQSKEKRKHKDTYSTEAPLGEGTEQYVNSISD
2 | binds | 3XFlag-SENP6(C1030A) (enzyme, UniProt Q9GZR1 1-1112) MAAGKSGGSAGEITFLEALARSESKRDGGFKNNWSFDHEEESEGDTDKDGTNLLSVDEDEDSETSKGKKLNRRSEIVANSSGEFILKTYVRRNKSESFKTLKGNPIGLNMLSNNKKLSENTQNTSLCSGTVVHGRRFHHAHAQIPVVKTAAQSSLDRKERKEYPPHVQKVEINPVRLSRLQGVERIMKKTEESESQVEPEIKRKVQQKRHCSTYQPTPPLSPASKKCLTHLEDLQRNCRQAITLNESTGPLLRTSIHQNSGGQKSQNTGLTTKKFYGNNVEKVPIDIIVNCDDSKHTYLQTNGKVILPGAKIPKITNLKERKTSLSDLNDPIILSSDDDDDNDRTNRRESISPQPADSACSSPAPSTGKVEAALNENTCRAERELRSIPEDSELNTVTLPRKARMKDQFGNSIINTPLKRRKVFSQEPPDALALSCQSSFDSVILNCRSIRVGTLFRLLIEPVIFCLDFIKIQLDEPDHDPVEIILNTSDLTKCEWCNVRKLPVVFLQAIPAVYQKLSIQLQMNKEDKVWNDCKGVNKLTNLEEQYIILIFQNGLDPPANMVFESIINEIGIKNNISNFFAKIPFEEANGRLVACTRTYEESIKGSCGQKENKIKTVSFESKIQLRSKQEFQFFDEEEETGENHTIFIGPVEKLIVYPPPPAKGGISVTNEDLHCLNEGEFLNDVIIDFYLKYLVLEKLKKEDADRIHIFSSFFYKRLNQRERRNHETTNLSIQQKRHGRVKTWTRHVDIFEKDFIFVPLNEAAHWFLAVVCFPGLEKPKYEPNPHYHENAVIQKCSTVEDSCISSSASEMESCSQNSSAKPVIKKMLNKKHCIAVIDSNPGQEESDPRYKRNICSVKYSVKKINHTASENEEFNKGESTSQKVADRTKSENGLQNESLSSTHHTDGLSKIRLNYSDESPEAGKMLEDELVDFSEDQDNQDDSSDDGFLADDNCSSEIGQWHLKPTICKQPCILLMDSLRGPSRSNVVKILREYLEVEWEVKKGSKRSFSKDVMKGSNPKVPQQNNFSDAGVYVLQYVESFFENPILSFELPMNLANWFPPPRMRTKREEIRNIILKLQEDQSKEKRKHKDTYSTEAPLGEGTEQYVNSISD
